Measured values from paper PMC5007466, “VCP recruitment to mitochondria causes mitophagy impairment and neurodegeneration in models of Huntington's disease” (Nature Communications, 2016).

The chains behind the UniProt entries cited, without tags or fusion partners. Where a name states a change or a piece, a line headed by the entry shows the natural chain unless it says otherwise.
UniProt P42858: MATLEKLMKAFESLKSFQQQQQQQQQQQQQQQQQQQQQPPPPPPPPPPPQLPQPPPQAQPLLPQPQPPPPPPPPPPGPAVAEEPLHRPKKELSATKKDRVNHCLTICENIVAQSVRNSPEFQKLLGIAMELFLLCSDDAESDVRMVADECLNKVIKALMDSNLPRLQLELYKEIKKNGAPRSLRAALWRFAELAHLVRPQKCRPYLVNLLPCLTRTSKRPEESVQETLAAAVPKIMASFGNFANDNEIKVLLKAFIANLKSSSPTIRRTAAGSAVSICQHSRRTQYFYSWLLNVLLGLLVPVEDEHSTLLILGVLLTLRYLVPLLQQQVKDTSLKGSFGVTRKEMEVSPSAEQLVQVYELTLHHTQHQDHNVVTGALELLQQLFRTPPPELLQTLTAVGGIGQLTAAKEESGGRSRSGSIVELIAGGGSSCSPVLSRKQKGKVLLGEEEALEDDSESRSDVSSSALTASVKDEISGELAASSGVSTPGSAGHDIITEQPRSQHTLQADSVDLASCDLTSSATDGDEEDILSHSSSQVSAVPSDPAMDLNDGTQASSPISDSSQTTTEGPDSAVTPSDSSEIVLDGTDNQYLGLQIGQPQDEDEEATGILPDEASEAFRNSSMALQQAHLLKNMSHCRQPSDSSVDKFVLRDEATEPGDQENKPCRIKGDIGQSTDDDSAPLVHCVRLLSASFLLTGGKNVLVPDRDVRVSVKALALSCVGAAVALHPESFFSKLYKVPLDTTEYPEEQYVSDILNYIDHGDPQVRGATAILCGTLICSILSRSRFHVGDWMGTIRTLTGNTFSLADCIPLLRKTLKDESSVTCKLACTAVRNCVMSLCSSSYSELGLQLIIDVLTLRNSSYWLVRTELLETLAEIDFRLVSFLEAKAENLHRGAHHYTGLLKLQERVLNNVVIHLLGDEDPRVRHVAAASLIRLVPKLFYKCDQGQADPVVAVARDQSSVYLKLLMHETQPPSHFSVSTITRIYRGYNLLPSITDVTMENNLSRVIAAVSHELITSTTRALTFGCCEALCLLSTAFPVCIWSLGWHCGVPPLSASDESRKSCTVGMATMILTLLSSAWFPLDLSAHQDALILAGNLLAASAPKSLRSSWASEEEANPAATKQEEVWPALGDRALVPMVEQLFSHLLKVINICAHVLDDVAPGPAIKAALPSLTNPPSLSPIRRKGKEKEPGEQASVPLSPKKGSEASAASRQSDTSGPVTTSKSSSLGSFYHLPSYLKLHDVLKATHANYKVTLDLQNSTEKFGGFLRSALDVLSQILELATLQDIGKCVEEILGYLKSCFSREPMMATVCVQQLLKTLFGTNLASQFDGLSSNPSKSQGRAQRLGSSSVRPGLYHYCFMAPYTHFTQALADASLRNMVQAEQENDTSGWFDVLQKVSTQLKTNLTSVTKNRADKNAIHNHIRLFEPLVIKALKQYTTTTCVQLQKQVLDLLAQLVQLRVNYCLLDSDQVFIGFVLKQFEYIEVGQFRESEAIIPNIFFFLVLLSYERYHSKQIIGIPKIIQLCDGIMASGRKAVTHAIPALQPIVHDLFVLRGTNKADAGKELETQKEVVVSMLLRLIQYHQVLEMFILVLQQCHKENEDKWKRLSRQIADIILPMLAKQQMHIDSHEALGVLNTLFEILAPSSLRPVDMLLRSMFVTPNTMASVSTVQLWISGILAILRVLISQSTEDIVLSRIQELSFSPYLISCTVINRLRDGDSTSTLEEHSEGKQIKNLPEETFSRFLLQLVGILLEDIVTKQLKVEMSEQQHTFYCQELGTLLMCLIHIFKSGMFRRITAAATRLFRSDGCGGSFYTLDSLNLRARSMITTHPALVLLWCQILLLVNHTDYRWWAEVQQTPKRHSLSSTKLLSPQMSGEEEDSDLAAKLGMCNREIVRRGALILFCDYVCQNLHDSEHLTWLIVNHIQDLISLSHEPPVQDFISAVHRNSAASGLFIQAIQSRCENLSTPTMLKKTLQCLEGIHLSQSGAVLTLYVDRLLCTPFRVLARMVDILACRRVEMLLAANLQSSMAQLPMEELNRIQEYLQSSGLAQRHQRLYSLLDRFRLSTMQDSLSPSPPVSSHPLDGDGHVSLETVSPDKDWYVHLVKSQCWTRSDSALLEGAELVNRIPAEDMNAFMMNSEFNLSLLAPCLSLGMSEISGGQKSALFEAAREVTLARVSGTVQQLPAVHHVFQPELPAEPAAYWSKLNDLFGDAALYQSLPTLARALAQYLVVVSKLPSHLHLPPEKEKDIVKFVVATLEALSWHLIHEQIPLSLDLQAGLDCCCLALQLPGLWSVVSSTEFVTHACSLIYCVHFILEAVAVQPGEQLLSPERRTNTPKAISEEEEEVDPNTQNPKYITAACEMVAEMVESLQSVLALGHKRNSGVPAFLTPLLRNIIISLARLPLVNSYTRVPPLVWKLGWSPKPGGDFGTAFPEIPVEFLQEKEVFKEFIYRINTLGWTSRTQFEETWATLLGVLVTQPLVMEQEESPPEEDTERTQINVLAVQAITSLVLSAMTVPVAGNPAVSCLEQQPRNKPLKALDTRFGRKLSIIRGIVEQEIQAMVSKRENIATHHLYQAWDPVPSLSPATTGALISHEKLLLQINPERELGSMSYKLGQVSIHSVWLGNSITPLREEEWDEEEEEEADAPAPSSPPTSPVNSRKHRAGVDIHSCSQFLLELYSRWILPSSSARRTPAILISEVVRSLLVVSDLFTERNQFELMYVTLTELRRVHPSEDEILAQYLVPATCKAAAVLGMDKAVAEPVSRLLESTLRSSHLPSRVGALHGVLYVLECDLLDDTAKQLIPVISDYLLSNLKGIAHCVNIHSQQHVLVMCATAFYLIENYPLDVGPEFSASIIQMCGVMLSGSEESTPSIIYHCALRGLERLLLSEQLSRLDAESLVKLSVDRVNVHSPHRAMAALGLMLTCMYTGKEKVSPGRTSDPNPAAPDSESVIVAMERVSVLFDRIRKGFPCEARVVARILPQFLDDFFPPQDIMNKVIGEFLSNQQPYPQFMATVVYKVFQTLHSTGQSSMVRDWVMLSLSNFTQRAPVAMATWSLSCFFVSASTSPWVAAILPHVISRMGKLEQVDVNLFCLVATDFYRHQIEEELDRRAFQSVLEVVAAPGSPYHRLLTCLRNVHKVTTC

How the values were obtained:
[1] = target: valosin-containing protein (VCP), endogenous mouse (mouse (endogenous in HdhQ7/HdhQ111 striatal cells and mouse brain)) (UniProt Q01853); test: co-IP; IP with anti-VCP antibody from mitochondrial fractions (HdhQ7/HdhQ111 cells, YAC128 mouse striata, HD patient fibroblasts); overnight at 4 °C, protein A/G beads; WB with MAB2166, 1C2 or EM48 antibody
[2] = target: valosin-containing protein (VCP), endogenous mouse (mouse (endogenous in HdhQ7/HdhQ111 striatal cells and mouse brain)) (UniProt Q01853); test: co-IP; IP with anti-VCP antibody from ER and cytosolic fractions (HdhQ111 cells, YAC128 mouse striata, HD patient fibroblasts); WB with MAB2166, 1C2 or EM48 antibody

binding [1]: binds
Substance: full-length human mutant huntingtin of YAC128 mice (128 CAG repeats) (from UniProt P42858)
binding [2]: no binding (only in ER and cytosolic fractions)

These are yes or no findings as the source states them, for the method shown. Binding seen in cells or lysates may run through a third protein. For some assays here: A result given as binding can be weak or reduced; the word gives no strength.
